Results: article PMC4858740
These are yes or no findings as the source states them, for the method shown. Binding calls can cover weak binding; strength is not graded here.

Chains of the proteins cited; added tags and fusions are not shown. Lines headed by an entry give the natural chain unless they say otherwise; changes in a name come on top. Residues count along the entry.
UniProt P01024, residues 23-1663: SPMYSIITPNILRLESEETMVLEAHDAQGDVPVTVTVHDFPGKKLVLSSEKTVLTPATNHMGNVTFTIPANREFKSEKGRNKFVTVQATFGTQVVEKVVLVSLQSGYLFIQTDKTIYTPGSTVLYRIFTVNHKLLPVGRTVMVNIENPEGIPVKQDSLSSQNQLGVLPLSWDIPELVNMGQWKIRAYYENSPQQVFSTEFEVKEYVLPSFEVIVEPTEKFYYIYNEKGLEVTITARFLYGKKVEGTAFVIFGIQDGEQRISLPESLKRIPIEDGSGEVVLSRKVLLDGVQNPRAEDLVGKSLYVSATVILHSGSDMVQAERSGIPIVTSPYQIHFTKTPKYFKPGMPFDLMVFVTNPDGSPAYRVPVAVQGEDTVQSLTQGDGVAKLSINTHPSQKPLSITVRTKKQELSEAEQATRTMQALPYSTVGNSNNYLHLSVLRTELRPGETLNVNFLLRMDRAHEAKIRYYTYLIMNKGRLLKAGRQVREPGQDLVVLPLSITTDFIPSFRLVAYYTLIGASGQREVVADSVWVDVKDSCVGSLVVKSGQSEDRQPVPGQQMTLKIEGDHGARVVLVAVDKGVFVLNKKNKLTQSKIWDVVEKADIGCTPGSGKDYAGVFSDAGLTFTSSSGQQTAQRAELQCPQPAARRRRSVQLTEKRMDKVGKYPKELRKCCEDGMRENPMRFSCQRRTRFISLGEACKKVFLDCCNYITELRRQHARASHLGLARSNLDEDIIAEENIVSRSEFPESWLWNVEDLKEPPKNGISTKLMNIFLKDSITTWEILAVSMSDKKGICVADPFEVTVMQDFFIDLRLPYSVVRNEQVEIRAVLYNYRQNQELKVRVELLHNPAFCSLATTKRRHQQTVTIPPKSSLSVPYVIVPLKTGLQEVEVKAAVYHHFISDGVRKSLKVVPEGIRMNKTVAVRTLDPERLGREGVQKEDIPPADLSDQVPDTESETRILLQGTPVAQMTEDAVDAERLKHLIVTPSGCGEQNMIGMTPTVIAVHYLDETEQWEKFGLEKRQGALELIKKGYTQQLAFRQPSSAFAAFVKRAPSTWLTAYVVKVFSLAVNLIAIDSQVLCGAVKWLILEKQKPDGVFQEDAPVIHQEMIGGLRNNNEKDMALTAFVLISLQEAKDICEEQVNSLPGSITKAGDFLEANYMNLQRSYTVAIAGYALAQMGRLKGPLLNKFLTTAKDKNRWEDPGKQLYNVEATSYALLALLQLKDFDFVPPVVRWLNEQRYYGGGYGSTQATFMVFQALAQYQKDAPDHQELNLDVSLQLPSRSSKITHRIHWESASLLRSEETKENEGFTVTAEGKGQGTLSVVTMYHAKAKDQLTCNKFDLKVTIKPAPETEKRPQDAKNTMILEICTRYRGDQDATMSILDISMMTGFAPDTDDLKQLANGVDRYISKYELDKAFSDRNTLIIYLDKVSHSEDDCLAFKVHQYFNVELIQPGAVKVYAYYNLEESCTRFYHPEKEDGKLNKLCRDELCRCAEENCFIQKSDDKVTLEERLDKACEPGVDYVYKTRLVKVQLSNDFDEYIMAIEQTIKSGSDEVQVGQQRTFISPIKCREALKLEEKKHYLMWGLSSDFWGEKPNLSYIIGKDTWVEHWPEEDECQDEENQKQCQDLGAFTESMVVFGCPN
UniProt P10228: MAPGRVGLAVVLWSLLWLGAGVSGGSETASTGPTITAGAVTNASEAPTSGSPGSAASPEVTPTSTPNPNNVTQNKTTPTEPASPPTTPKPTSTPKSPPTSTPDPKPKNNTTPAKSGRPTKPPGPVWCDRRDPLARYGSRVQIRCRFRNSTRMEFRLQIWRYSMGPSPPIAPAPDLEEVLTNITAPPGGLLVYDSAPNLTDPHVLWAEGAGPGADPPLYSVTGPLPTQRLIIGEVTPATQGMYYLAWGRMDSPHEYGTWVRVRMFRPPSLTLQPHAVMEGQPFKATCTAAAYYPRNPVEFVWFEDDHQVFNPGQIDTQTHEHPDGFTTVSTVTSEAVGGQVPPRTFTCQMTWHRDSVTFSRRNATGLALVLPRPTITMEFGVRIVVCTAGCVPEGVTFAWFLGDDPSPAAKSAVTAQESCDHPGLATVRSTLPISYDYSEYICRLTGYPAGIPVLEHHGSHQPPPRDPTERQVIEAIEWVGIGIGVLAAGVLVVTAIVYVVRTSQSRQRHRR

Molecular target: complement factor C3 (human) (UniProt P01024)
Test: peptide or protein array; both purified

## HSV glycoprotein C (from UniProt P10228)
  binding: binds
